Laboratory results reported in PubChem BioAssay AID504467 (National Center for Advancing Translational Sciences (NCATS), 2011).
About 7,700 (2.3%) of roughly 330,000 compounds were called active. The inconclusive results got no clear call from the source; some entries with a clear call stand among them for comparison. Calls follow the shape of the dose curve; as a rule, active = well fitted inhibition curve with a large enough effect; inconclusive = small, poorly fitted or top-dose-only effect, or effect the other way; inactive = flat fitted curve, though single readings scatter. Where the call is inconclusive, the potency comes from a doubtful curve fit.

Experiment: qHTS screen for small molecules that inhibit ELG1-dependent DNA repair in human embryonic kidney (HEK293T) cells expressing luciferase-tagged ELG1; also: nearly all actives have a fitted effect of over 55% in size
Conditions: HEK293T ELG1-luciferase reporter, luminescence, 16 h, DNA damage induced by 5-fluorouridine; activity change, negative = inhibition: at 46.1 µM (top of the series)
Method in brief: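 In this reporter screen, reduction of luminescence relative to DMSO vehicle indicated activity. Compounds and 5-fluorouridine were added together to 2,000 cells per well, incubated for 16 hr at 37 °C, then developed with ONE-Glo.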
% is scaled to controls: 0 for no effect and ±100 for the full control effect; potency is read from the fitted curve at half-maximal effect.

Row | Compound | Potency | activity change, negative = inhibition
1 | O=S(=O)(c1ccccc1)N1N=C(c2cccs2)CC1c1cccc(O)c1 (stereo not drawn) | inconclusive: 9.2 µM [inhibitor, partial curve] | –
2 | COCCn1c(C)cc(C(=O)COC(=O)/C=C/c2c(C)nn(C3CCS(=O)(=O)C3)c2Cl)c1C (stereo not drawn) | inconclusive: 29.1 µM [inhibitor, partial curve, poor fit] | –
3 | CN=c1scc(C)n1/N=C/c1cc(Br)c(O)c(OC)c1 | inconclusive: 6.51 µM [inhibitor, partial curve] | –
4 | COc1cccc2c1O/C(=N\O)C(C(=O)Nc1cccc(Br)c1)C2 (stereo not drawn) | – | inactive: 12.6%
5 | CCN1CCN(S(=O)(=O)c2ccc(Oc3ccccc3OC)cc2)CC1 | inconclusive: 8.2 µM [inhibitor, partial curve] | –
6 | COCc1cc(=O)[nH]c(Nc2nc3ccc(C)cc3o2)n1 | inconclusive: 3.66 µM [activator, partial curve] | –
7 | COCC1CCN(Cc2cn[nH]c2-c2cc(OC)c(OC)c(OC)c2)CC1 | inconclusive: 25.9 µM [inhibitor, single point] | –
8 | COc1ccc(NS(=O)(=O)c2cc(NC(=O)c3ccc(=O)[nH]n3)ccc2C)cc1 | inconclusive: 5.8 µM [inhibitor, partial curve, poor fit] | –
9 | CC(C)C1C(c2ccccc2)NC(c2ccccc2)CC1(O)c1ccc(F)cc1 (stereo not drawn) | inconclusive: 3.26 µM [inhibitor, partial curve, poor fit] | –
10 | O=C(Nc1ccccc1O)c1ccc2c(c1)C(=O)N(c1ccccc1)C2=O | – | inactive: -9.65%
11 | CNc1nc(N)c([N+](=O)[O-])c(NCC2CCCO2)n1 (stereo not drawn) | inconclusive: 25.9 µM [activator, partial curve] | –
12 | CC(C)Oc1cccc(C(=O)C2CCCN(C(=O)c3ccnn3C)C2)c1 (stereo not drawn) | inconclusive: 1.16 µM [activator, single point] | –
13 | NC(=O)c1ccsc1NC(=O)COC(=O)c1nc(Cl)ccc1Cl | – | inactive: 23.1%
14 | O=S(=O)(Nc1cccc(-c2ccc(N3CCOCC3)nn2)c1)c1ccc(Cl)c(Cl)c1 | inconclusive: 7.3 µM [activator, single point] | –
15 | CCOC(=O)c1c(-c2ccccc2)oc2ccc(OC)cc12 | – | inactive: 0.0444%
16 | CSc1ccc(S(=O)(=O)NCC(=O)OCC(=O)N(C)Cc2ccccc2)cc1[N+](=O)[O-] | inconclusive: 23.1 µM [activator, single point] | –
17 | COc1cccc(-c2nc(N)nc(SC)c2C#N)c1 | – | inactive: -12.5%
18 | CNC[C@H](CC1CCCCC1)NC[C@H](NCCC1CCCC1)[C@H](C)O | – | inactive: 16.8%
19 | CCN1C(=O)/C(=C\c2ccc(-c3ccc([N+](=O)[O-])cc3OC)o2)SC1=Nc1cccc(C(=O)O)c1 | inconclusive: 20.6 µM [inhibitor, single point] | –
20 | CCc1nnc(NC(=O)c2nc(S(=O)(=O)Cc3ccccc3)ncc2Cl)s1 | inconclusive: 29.1 µM [inhibitor, single point] | –
21 | O=C(N/N=C/c1cc2c(cc1Cl)OCO2)c1ccc2c(c1)OCCO2 | inconclusive: 18.3 µM [inhibitor, single point] | –
22 | Cc1cc(C)n2nc(-c3ccccc3)cc2n1 | inconclusive: 9.2 µM [activator, partial curve] | –
23 | N#C/C(=N\Nc1ccc(F)cc1)C(=O)C1CC1 | inconclusive: 11.6 µM [inhibitor, single point] | –

Row | Compound | Potency | activity change, negative = inhibition
24 | CCc1ccc2[nH]c(=O)c(CN(CCN(C)C)C(=O)Nc3ccccc3)cc2c1 | inconclusive: 5.01 µM [activator, single point] | –
25 | O=C(Nc1ccccc1N1CCN(C(=O)c2ccc(Cl)cc2)CC1)c1cc2ccccc2o1 | inconclusive: 6.31 µM [inhibitor, partial curve, poor fit] | –
26 | Cc1cc(C(=O)Nc2ccccc2C)n(-c2ccccc2)n1 | – | inactive: 0.684%
27 | O=C(NCC1COc2ccccc2O1)c1ccc(Cl)cc1 (stereo not drawn) | inconclusive: 8.2 µM [activator, partial curve] | –
28 | NC(=O)c1c(NC(=S)Nc2ccc(F)cc2)sc2c1CCCC2 | – | inactive: 7.09%
29 | C/C(=N\NC(=O)c1c(Cl)cnn1C)c1cccnc1 | inconclusive: 29.1 µM [activator, partial curve, poor fit] | –
30 | CC(=O)Nc1ccc(OCC(O)Cn2ccnc2)cc1 (stereo not drawn) | inconclusive: 20.6 µM [activator, partial curve] | –
31 | CCOc1ccc(NC(=O)C(=O)NCCN2CCN(S(=O)(=O)c3ccccc3)CC2)cc1 | – | inactive: 0.153%
32 | CC1=Nn2c(nnc2C2CCCCC2)SC1 | – | inactive: 15.6%
33 | NC(=O)c1c(/N=C/c2cccs2)sc2c1CCCC2 | inconclusive: 20.6 µM [activator, partial curve] | –
34 | Cc1cc(C)nc(N/N=C/c2ccccc2Cl)n1 | inconclusive: 5.8 µM [activator, single point] | –
35 | Cc1cc(C)c(-c2nc3ccccc3s2)[nH]1 | inconclusive: 18.3 µM [activator, partial curve] | –
36 | CC12CCC(=O)N1C(C(=O)NCCN1C(=O)S/C(=C\c3ccc(OC(F)F)cc3)C1=O)CS2 (stereo not drawn) | inconclusive: 5.8 µM [inhibitor, single point] | –
37 | COc1ccc(OCC(=O)Nc2ccc(NC(=O)c3ccco3)cc2)cc1 | inconclusive: 20.6 µM [activator, partial curve] | –
38 | COc1ccc(NS(=O)(=O)c2cc(NC(=O)c3cnc(C)cn3)ccc2N2CCCC2)cc1 | inconclusive: 23.1 µM [inhibitor, single point] | –
39 | CC(C)(C)OC(=O)C[C@@H]1C/C=C\C[C@H](CC(=O)NCCO)C(=O)N2CCC[C@H]2COC1=O | inconclusive: 18.3 µM [activator, partial curve, poor fit] | –
40 | O=C(Cc1c(O)c2ccccc2oc1=O)c1ccc(C(F)(F)F)cc1 | inconclusive: 25.9 µM [activator, partial curve, poor fit] | –
41 | COc1cc(C2Nc3cccc4cccc(c34)N2)cc(OC)c1O | inconclusive: 2.91 µM [inhibitor, full curve] | –
42 | Cc1ccc(-c2c[n+]3c(n2-c2ccccc2)CCC3)cc1 | active: 2.31 µM | –
43 | CCOC(=O)c1c(NC(=O)COC(=O)c2nc(Cl)ccc2Cl)sc2c1CCC2 | inconclusive: 18.4 µM [activator, single point] | –
44 | Cc1ccc(/C=C/C(=O)c2c(C)nc3ccccn23)cc1 | inconclusive: 3.26 µM [activator, full curve] | –
45 | CC(Sc1nc2c(N)ncnc2n1CCOc1ccccc1)C(=O)O (stereo not drawn) | – | inactive: 25.1%
46 | Cc1noc(NS(=O)(=O)c2ccc(N/C=C\C(=O)c3ccc(Br)cc3)cc2)c1C | inconclusive: 16.4 µM [activator, single point] | –

From compound 24 to 40, as listed above:
Row | Compound | Potency | activity change, negative = inhibition
24 | CCc1ccc2[nH]c(=O)c(CN(CCN(C)C)C(=O)Nc3ccccc3)cc2c1 | inconclusive: 5.01 µM [activator, single point] | –
25 | O=C(Nc1ccccc1N1CCN(C(=O)c2ccc(Cl)cc2)CC1)c1cc2ccccc2o1 | inconclusive: 6.31 µM [inhibitor, partial curve, poor fit] | –
26 | Cc1cc(C(=O)Nc2ccccc2C)n(-c2ccccc2)n1 | – | inactive: 0.684%
27 | O=C(NCC1COc2ccccc2O1)c1ccc(Cl)cc1 (stereo not drawn) | inconclusive: 8.2 µM [activator, partial curve] | –
28 | NC(=O)c1c(NC(=S)Nc2ccc(F)cc2)sc2c1CCCC2 | – | inactive: 7.09%
29 | C/C(=N\NC(=O)c1c(Cl)cnn1C)c1cccnc1 | inconclusive: 29.1 µM [activator, partial curve, poor fit] | –
30 | CC(=O)Nc1ccc(OCC(O)Cn2ccnc2)cc1 (stereo not drawn) | inconclusive: 20.6 µM [activator, partial curve] | –
31 | CCOc1ccc(NC(=O)C(=O)NCCN2CCN(S(=O)(=O)c3ccccc3)CC2)cc1 | – | inactive: 0.153%
32 | CC1=Nn2c(nnc2C2CCCCC2)SC1 | – | inactive: 15.6%
33 | NC(=O)c1c(/N=C/c2cccs2)sc2c1CCCC2 | inconclusive: 20.6 µM [activator, partial curve] | –
34 | Cc1cc(C)nc(N/N=C/c2ccccc2Cl)n1 | inconclusive: 5.8 µM [activator, single point] | –
35 | Cc1cc(C)c(-c2nc3ccccc3s2)[nH]1 | inconclusive: 18.3 µM [activator, partial curve] | –
36 | CC12CCC(=O)N1C(C(=O)NCCN1C(=O)S/C(=C\c3ccc(OC(F)F)cc3)C1=O)CS2 (stereo not drawn) | inconclusive: 5.8 µM [inhibitor, single point] | –
37 | COc1ccc(OCC(=O)Nc2ccc(NC(=O)c3ccco3)cc2)cc1 | inconclusive: 20.6 µM [activator, partial curve] | –
38 | COc1ccc(NS(=O)(=O)c2cc(NC(=O)c3cnc(C)cn3)ccc2N2CCCC2)cc1 | inconclusive: 23.1 µM [inhibitor, single point] | –
39 | CC(C)(C)OC(=O)C[C@@H]1C/C=C\C[C@H](CC(=O)NCCO)C(=O)N2CCC[C@H]2COC1=O | inconclusive: 18.3 µM [activator, partial curve, poor fit] | –
40 | O=C(Cc1c(O)c2ccccc2oc1=O)c1ccc(C(F)(F)F)cc1 | inconclusive: 25.9 µM [activator, partial curve, poor fit] | –

Next entries follow.

Row | Compound | Potency | activity change, negative = inhibition
47 | O=C(NC1CCCCCC1)C(=S)NCCc1ccccc1 | inconclusive: 18.3 µM [activator, single point] | –
48 | Cc1ccc(NC(=O)CCS(=O)(=O)c2ccc(Br)s2)cc1 | – | inactive: 1.16%
49 | NNC(=O)c1ccc(COc2cccc3cccnc23)cc1 | – | inconclusive: 20.4% [activator]
50 | COc1ccc2c(c1)c(=O)c(C(=O)c1ccccc1)cn2Cc1ccc(C)cc1 | inconclusive: 23.1 µM [inhibitor, partial curve, poor fit] | –
51 | O=C(NCc1ccncc1)C1CCCN(S(=O)(=O)c2ccc(Br)cc2)C1 (stereo not drawn) | inconclusive: 11.6 µM [inhibitor, partial curve] | –
52 | CCOC(=O)C(CC)n1nc(C)n2c(cc3sccc32)c1=O (stereo not drawn) | – | inactive: -1.64%
53 | Cn1c(NC(=O)c2ccccc2F)c(-c2cccs2)c(=O)c2ccccc21 | – | inactive: 12.5%
54 | Cn1cccc1/C=N/NC(N)=S | – | inactive: 13.8%
55 | COc1ccc(OCC(=O)Nc2ccc3c(c2)n(C)c(=O)n3C)cc1 | inconclusive: 2.82 µM [inhibitor, partial curve, poor fit] | –
56 | O=C(Nc1nnc(C2CC2)s1)c1ccc(S(=O)(=O)c2ccccc2)cc1 | – | inactive: 8.63%
57 | CCc1ccc(CNC(=O)Cc2ccc(NC(=O)C3=C(C)OCCS3)cc2)cc1 | inconclusive: 6.51 µM [activator, full curve] | –
58 | Cc1cccc(NC(=O)Nc2ccc3c(c2)CCC3)c1 | inconclusive: 5.17 µM [activator, partial curve] | –
59 | O=C(O)c1ccc(NC2=Nc3cccc4cccc2c34)cc1 | inconclusive: 29.1 µM [activator, single point] | –
60 | O=C(Nc1ccncc1)c1c(F)c(F)c(F)c(F)c1F | – | inactive: -2.73%
61 | O=C(N/N=C/c1cccc([N+](=O)[O-])c1)C1COc2ccccc2O1 (stereo not drawn) | – | inactive: -3.93%
62 | CCCC1O[C@@H]2C[C@H]3[C@@H]4CCC5=CC(=O)C=C[C@]5(C)[C@H]4[C@@H](O)C[C@]3(C)[C@]2(C(=O)CO)O1 (stereo partly drawn) | – | inactive: 6.67%
63 | Cc1ccc(-n2ncc(C(=O)Nc3cc(Cl)ccc3C)c2C2CCNCC2)cc1C | inconclusive: 16.4 µM [inhibitor, partial curve] | –
64 | Cc1ccc(C(=O)Nc2cccc3ccccc23)cc1 | inconclusive: 29.1 µM [activator, single point] | –
65 | CCCc1ccc(OCc2ccc(C(=O)NN)o2)c(OC)c1 | inconclusive: 2.91 µM [activator, partial curve] | –
66 | c1ccn2c(c1)nc1c2nc2ccccn21 | inconclusive: 13 µM [activator, partial curve] | –
67 | COc1ccc(-c2[nH]ncc2/C=N\NS(=O)(=O)c2ccc(Cl)cc2)cc1 | inconclusive: 25.9 µM [inhibitor, single point] | –
68 | NC(=O)[C@H]1CC2(CC(c3cccc(NC(=O)COc4ccc(Cl)cc4)c3)=NO2)CN1C(=O)c1ccccc1C(=O)c1ccccc1 (stereo partly drawn) | inconclusive: 29.1 µM [inhibitor, single point] | –
